Laboratory results as given in the supplement of paper PMC6411743.
± gives the standard deviation of the averaged measurements. Some of the results follow.

Chains of the proteins cited; added tags and fusions are not shown. Lines headed by an entry give the natural chain unless they say otherwise; changes in a name come on top.
UniProt Q8ND83, whole entry: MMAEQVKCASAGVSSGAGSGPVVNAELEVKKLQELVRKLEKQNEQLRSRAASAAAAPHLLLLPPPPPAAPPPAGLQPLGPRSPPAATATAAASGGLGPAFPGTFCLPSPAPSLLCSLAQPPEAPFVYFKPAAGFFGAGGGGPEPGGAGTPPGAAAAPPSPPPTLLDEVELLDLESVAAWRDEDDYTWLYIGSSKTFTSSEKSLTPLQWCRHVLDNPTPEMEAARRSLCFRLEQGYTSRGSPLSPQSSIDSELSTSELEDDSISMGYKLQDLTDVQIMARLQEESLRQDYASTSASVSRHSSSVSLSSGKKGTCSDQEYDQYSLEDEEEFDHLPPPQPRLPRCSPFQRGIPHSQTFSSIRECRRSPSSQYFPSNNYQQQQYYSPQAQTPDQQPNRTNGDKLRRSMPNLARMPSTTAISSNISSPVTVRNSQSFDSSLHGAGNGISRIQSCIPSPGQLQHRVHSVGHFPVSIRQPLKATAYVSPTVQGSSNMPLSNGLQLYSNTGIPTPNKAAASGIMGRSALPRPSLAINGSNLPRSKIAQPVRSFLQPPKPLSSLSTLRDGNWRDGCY
UniProt C4AMC7: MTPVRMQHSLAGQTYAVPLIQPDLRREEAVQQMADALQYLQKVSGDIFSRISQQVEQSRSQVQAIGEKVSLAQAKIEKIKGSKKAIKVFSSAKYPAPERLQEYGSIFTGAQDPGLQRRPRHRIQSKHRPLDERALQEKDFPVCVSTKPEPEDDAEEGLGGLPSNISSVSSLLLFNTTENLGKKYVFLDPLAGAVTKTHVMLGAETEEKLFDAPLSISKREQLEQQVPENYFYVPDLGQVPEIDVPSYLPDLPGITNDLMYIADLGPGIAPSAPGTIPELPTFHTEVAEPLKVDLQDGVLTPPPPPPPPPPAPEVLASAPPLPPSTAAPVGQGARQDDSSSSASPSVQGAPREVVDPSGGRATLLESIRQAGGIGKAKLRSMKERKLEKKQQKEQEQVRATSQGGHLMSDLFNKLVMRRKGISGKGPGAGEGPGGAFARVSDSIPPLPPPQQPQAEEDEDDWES
UniProt Q6VEQ5: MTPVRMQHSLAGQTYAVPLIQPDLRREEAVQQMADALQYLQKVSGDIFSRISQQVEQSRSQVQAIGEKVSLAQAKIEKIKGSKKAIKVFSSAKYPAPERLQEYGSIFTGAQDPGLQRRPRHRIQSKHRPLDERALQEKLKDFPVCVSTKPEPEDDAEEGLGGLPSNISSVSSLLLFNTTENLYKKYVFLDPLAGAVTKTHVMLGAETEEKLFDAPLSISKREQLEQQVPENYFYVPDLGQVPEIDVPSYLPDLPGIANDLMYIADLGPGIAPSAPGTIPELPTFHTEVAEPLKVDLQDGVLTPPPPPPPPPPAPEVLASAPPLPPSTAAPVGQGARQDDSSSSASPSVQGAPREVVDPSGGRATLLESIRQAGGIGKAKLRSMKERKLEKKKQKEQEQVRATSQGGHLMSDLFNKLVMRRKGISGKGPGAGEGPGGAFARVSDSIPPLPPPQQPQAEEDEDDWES
UniProt Q9H6R4: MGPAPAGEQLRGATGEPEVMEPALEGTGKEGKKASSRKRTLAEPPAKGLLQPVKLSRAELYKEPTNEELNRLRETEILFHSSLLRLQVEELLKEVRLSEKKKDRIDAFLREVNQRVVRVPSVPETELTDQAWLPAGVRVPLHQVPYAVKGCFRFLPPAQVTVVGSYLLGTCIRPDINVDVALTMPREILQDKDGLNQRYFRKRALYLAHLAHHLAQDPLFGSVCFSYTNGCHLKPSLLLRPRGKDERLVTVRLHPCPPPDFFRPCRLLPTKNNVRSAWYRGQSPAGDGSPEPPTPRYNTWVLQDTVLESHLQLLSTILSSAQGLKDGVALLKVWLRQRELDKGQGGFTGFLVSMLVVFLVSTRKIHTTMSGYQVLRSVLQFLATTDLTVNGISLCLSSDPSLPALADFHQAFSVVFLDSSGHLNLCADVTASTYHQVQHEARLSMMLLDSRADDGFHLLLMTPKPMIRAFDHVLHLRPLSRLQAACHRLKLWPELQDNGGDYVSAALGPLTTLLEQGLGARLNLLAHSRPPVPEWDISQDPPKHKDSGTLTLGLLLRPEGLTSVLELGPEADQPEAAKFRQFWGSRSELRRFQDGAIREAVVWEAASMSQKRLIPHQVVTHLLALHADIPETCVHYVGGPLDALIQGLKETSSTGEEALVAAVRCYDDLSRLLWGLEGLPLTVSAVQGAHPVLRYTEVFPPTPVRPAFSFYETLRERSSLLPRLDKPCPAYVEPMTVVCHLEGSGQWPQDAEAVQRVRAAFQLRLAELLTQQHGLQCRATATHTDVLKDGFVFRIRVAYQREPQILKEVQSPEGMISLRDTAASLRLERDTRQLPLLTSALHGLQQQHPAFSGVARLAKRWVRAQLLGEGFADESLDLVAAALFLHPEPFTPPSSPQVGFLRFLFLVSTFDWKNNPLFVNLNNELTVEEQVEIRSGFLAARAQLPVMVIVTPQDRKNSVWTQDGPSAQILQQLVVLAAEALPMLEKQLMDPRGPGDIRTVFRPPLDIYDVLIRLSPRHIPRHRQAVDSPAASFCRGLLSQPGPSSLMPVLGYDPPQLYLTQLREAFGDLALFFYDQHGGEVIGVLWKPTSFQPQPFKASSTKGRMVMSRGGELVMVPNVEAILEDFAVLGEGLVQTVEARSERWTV

Compound: Nc1nc2c(ncn2[C@@H]2O[C@H](COP(=O)(O)OP(=O)(O)OP(=O)(O)O)[C@@H](O)[C@H]2O)c(=O)[nH]1 [guanosine triphosphate]
Experiment: NP40-soluble protein abundance relative to vehicle (solubility fold change) (ratio); higher = more soluble protein in presence of GTP
Procedure, shortened: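 Each value is a fold change relative to the detergent-processed vehicle, calculated per replicate from vsn-normalised intensities. Jurkat crude lysate received eight concentrations (0.1 to 10 mM) for 10 min at room temperature and 3 min at 37 °C, then was solubilised in 0.8% NP40 with benzonase (60 min, 4 °C). The ultracentrifuged supernatant was TMT-labelled and run by LC-MS/MS in three independent experiments.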

Target	NP40-soluble protein abundance (concentration: 0.1mM)	NP40-soluble protein abundance (concentration: 0.5mM)	NP40-soluble protein abundance (concentration: 1mM)	NP40-soluble protein abundance (concentration: 2mM)	NP40-soluble protein abundance (concentration: 4mM)	NP40-soluble protein abundance (concentration: 6mM)	NP40-soluble protein abundance (concentration: 8mM)	NP40-soluble protein abundance (concentration: 10mM)
A0A0A0MSS3|Q8ND83 (UniProt Q8ND83)	1 ± 0.017	1.06 ± 0.067	1.09 ± 0.036	1.09 ± 0.02	1.06 ± 0.076	1.04 ± 0.034	1.04 ± 0.04	1.09 ± 0.081
A0A096LP75|C4AMC7 and related entries (UniProt Q6VEQ5+C4AMC7)	0.9598 ± 0.002	0.905 ± 0.034	1.06 ± 0.091	1.019 ± 0.0057	0.989 ± 0.011	1.062 ± 0.0092	1.03 ± 0.13	1 ± 0.052
A0A0A0MRW6|Q9H6R4 and related entries (UniProt Q9H6R4)	1.04 ± 0.059	1.07 ± 0.16	1.09 ± 0.041	1.28 ± 0.048	1.19 ± 0.14	1.21 ± 0.23	1.25 ± 0.21	1.53 ± 0.43
